{
  "sequences": {"note": "Protein sequences, listed by entry. Tags and fused reporters are not part of them.", "UniProt P04147": "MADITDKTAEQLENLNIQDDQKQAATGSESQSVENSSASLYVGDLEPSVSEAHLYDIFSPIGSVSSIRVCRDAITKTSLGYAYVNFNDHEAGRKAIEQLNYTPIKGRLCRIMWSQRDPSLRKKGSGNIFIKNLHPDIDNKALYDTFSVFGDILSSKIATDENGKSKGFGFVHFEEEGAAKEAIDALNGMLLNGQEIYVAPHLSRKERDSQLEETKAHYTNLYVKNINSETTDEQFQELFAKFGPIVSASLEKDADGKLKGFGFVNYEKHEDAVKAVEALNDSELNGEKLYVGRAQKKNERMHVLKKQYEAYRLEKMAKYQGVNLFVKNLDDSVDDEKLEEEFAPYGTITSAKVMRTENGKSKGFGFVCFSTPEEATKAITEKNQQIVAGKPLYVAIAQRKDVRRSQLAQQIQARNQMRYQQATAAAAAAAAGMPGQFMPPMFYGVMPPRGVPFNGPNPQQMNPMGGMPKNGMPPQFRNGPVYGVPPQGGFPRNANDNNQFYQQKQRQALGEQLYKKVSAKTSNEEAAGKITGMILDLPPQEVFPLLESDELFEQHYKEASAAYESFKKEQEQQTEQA"},
  "source": "paper doi:10.1101/2021.08.09.455688",
  "key": {"[1]": {"molecular_target": "T1, full-length Sro9 protein (epitope-tagged) (budding yeast) (UniProt P25567)", "T1 sequence": "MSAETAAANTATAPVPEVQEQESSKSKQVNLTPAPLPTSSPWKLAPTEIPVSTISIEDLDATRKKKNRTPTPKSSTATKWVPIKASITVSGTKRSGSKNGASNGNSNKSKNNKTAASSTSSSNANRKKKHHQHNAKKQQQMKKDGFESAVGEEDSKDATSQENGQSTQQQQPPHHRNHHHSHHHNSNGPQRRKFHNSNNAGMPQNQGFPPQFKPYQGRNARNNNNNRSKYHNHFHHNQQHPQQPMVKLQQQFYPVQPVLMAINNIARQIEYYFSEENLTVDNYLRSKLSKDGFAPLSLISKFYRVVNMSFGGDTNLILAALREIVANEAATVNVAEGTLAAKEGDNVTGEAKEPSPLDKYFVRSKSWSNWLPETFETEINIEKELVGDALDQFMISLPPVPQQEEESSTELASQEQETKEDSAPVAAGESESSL", "test": "co-IP"}, "[2]": {"molecular_target": "T2, epitope-tagged N-terminal Sro9(1-151) (budding yeast) (UniProt P25567)", "T2 sequence": "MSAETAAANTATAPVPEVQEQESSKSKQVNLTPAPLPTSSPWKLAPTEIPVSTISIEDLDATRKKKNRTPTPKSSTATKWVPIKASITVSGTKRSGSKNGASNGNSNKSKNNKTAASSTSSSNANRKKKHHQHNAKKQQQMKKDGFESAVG", "test": "co-IP"}},
  "note": "These are yes or no findings as the source states them, for the method shown. In cells and extracts the contact can be indirect. Some binding calls cover weakened binding; strength is not graded here. Sequences can lack the tags named with a protein.",
  "data": [
    {"substance": "poly(A)-binding protein Pab1 (from UniProt P04147 1-577)", "values": [
      {"measurement": "binding", "setting": "[1]", "result": "binds"},
      {"measurement": "binding", "setting": "[2]", "result": "binds"}
    ]}
  ]
}
